Data on 1 substance can be found in article PMC5241887.

The chains behind the UniProt entries cited, without tags or fusion partners. Where a name states a change or a piece, a line headed by the entry shows the natural chain unless it says otherwise. A line that says so, or that is headed by a name, gives the form on record, which may keep a tag or linker.
C-terminal half of zebrafish Sec10 (zSec10), tryptic fragment after Arg394 (B0BLY0, form named): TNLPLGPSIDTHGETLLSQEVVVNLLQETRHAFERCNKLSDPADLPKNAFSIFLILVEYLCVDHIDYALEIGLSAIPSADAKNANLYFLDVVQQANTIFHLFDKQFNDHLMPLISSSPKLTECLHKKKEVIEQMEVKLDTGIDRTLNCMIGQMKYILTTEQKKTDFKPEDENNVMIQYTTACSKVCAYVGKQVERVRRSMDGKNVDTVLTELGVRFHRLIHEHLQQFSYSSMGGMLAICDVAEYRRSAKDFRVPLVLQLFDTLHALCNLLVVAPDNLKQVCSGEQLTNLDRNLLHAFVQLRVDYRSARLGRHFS
N-terminal half of zebrafish Sec10 (zSec10), tryptic fragment ending at Arg394 (B0BLY0, form named): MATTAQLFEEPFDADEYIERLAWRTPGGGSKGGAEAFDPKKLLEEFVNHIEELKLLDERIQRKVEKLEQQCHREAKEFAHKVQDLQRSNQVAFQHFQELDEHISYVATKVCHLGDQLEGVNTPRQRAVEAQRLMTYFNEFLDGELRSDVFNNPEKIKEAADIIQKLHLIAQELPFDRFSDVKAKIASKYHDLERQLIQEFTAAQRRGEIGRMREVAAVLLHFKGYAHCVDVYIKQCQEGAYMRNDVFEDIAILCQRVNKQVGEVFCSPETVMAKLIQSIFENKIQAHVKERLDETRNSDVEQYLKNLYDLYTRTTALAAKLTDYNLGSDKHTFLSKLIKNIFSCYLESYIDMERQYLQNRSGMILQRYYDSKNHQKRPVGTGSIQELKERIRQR

No constants are given. Whether binding was seen depends on the method and setting. Some entries that bind do so weakly or less than the wild type.

The target in this assay is C-terminal half of zebrafish Sec10 (zSec10), tryptic fragment after Arg394 (zebrafish) (UniProt B0BLY0). The assay is described as follows: SEC; zSec10 treated with trypsin (1:100 by weight, 12-36 h, 4 °C), then Superdex200 10/300 GL in 10 mM Tris-HCl pH 7.5, 50 mM NaCl, 1 mM DTT; peak fractions by SDS-PAGE; both purified. Background: SEC sorts molecules by how far they enter the pores of the column.

As for “N-terminal half of zebrafish Sec10 (zSec10), tryptic fragment ending at Arg394 (from UniProt B0BLY0 1-394) (domain or fragment)”, the binding entry was “binds”.
